Results are given in words; binding and its absence hold for the method and conditions named. In cells and extracts the contact can be indirect. A result given as binding can be weak or reduced; the word gives no strength.
Biological target: EmGFP-Tm1-I (DmTropomyosin1-I/C isoform, EmeraldGFP fusion) (Drosophila melanogaster)
Assay: co-IP

binding | Binder
binds | Staufen (protein, UniProt P25159 1-1026) MQHNVHAARPAPHIRAAHHHSHSHAHMHLHPGMEQHLGPSLQQQQQPPPPPQQPPHRDLHARLNHHHLHAQQQQQQQTSSNQAGAVAAAGAAYHHGNINSNSGSNISSNSNQMQKIRQQHQHLSSSNGLLGNQPPGPPPQAFNPLAGNPAALAYNQLPPHPPHHMAAHLGSYAAPPPHYYMSQAKPAKYNHYGSNANSNSGSNNSNSNYAPKAILQNTYRNQKVVVPPVVQEVTPVPEPPVTTNNATTNSTSNSTVIASEPVTQEDTSQKPETRQEPASADDHVSTGNIDATGALSNEDTSSSGRGGKDKTPMCLVNELARYNKITHQYRLTEERGPAHCKTFTVTLMLGDEEYSADGFKIKKAQHLAASKAIEETMYKHPPPKIRRSEEGGPMRTHITPTVELNALAMKLGQRTFYLLDPTQIPPTDSIVPPEFAGGHLLTAPGPGMPQPPPPPAYALRQRLGNGFVPIPSQPMHPHFFHGPGQRPFPPKFPSRFALPPPLGAHVHHGPNGPFPSVPTPPSKITLFVGKQKFVGIGRTLQQAKHDAAARALQVLKTQAISASEEALEDSMDEGDKKSPISQVHEIGIKRNMTVHFKVLREEGPAHMKNFITACIVGSIVTEGEGNGKKVSKKRAAEKMLVELQKLPPLTPTKQTPLKRIKVKTPGKSGAAAREGSVVSGTDGPTQTGKPERRKRLNPPKDKLIDMDDADNPITKLIQLQQTRKEKEPIFELIAKNGNETARRREFVMEVSASGSTARGTGNSKKLAKRNAAQALFELLEAVQVTPTNETQSSEECSTSATMSAVTAPAVEATAEGKVPMVATPVGPMPGILILRQNKKPAKKRDQIVIVKSNVESKEEEANKEVAVAAEENSNNSANSGDSSNSSSGDSQATEAASESALNTSTGSNTSGVSSNSSNVGANTDGNNHAESKNNTESSSNSTSNTQSAGVHMKEQLLYLSKLLDFEVNFSDYPKGNHNEFLTIVTLSTHPPQICHGVGKSSEESQNDAASNALKILSKLGLNNAMK
no binding | BicD (protein, UniProt P16568 1-782) MSSASNNGPSADQSVQDLQMEVERLTRELDQVSSASAQSAQYGLSLLEEKSALQQKCEELETLYDNTRHELDITQEALTKFQTSQKVTNKTGIEQEDALLNESAARETSLNLQIFDLENELKQLRHELERVRNERDRMLQENSDFGRDKSDSEADRLRLKSELKDLKFRETRMLSEYSELEEENISLQKQVSSLRSSQVEFEGAKHEIRRLTEEVELLNQQVDELANLKKIAEKQMEEALETLQGEREAKYALKKELDGHLNRESMYHISNLAYSIRSNMEDNASNNSDGEEENLALKRLEADLSTELKSPDGTKCDLFSEIHLNELKKLEKQLESMESEKTHLTANLREAQTSLDKSQNELQNFMSRLALLAAHVDALVQLKKQIDVKEQGKEGGQKKDELEQQLRALISQYANWFTLSAKEIDGLKTDIAELQKGLNYTDATTTLRNEVTNLKNKLLATEQKSLDLQSDVQTLTHISQNAGQSLGSARSTLVALSDDLAQLYHLVCTVNGETPTRVLLDHKTDDMSFENDSLTAIQSQFKSDVFIAKPQIVEDLQGLADSVEIKKYVDTVSDQIKYLKTAVEHTIDMNKHKIRSEGGDALEKVNTEEMEELQEQIVKLKSLLSVKREQIGTLRNVLKSNKQTAEVALTNLKSKYENEKIIVSDTMSKLRNELRLLKEDAATFSSLRAMFAARCEEYVTQVDDLNRQLEAAEEEKKTLNQLLRLAVQQKLALTQRLEEMEMDREMRHVRRPMPAQRGTSGKSSFSTRPSSRNPASSNANPF
no binding | dynein (detected as Dic) (protein, UniProt Q24246 1-663) MDRKAELERKKAKLAALREEKDRRRREKEIKDMEEAAGRIGGGAGIDKDQRKDLDEMLSSLGVAPVSEVLSSLSSVNSMTSDNSNTQTPDASLQATVNGQSGGKKQPLNLSVYNVQATNIPPKETLVYTKQTQTTSTGGGNGDVLSCHSSPLSGYMEDWWRPRKAHATDYYDEYNLNPGLEWEDEFTDDEESSLQNLGNGFTSKLPPGYLTHGLPTVKDVAPAITPLEIKKETEVKKEVNELSEEQKQMIILSENFQRFVVRAGRVIERALSENVDIYTDYIGGGDSEEANDERSHARLSLNRVFYDERWSKNRCITSMDWSTHFPELVVGSYHNNEESPNEPDGVVMVWNTKFKKSTPEDVFHCQSAVMSTCFAKFNPNLILGGTYSGQIVLWDNRVQKRTPIQRTPLSAAAHTHPVYCLQMVGTQNAHNVISISSDGKLCSWSLDMLSQPQDTLELQQRQSKAIAITSMAFPANEINSLVMGSEDGYVYSASRHGLRSGVNEVYERHLGPITGISTHYNQLSPDFGHLFLTSSIDWTIKLWSLKDTKPLYSFEDNSDYVMDVAWSPVHPALFAAVDGSGRLDLWNLNQDTEVPTASIVVAGAPALNRVSWTPSGLHVCIGDEAGKLYVYDVAENLAQPSRDEWSRFNTHLSEIKMNQSDEV

From publication doi:10.1101/067876
